The text below walks through data of publication PMC6156764.

Sequences of proteins named here, by UniProt entry; tags and fusion partners are left off.
UniProt Q15562: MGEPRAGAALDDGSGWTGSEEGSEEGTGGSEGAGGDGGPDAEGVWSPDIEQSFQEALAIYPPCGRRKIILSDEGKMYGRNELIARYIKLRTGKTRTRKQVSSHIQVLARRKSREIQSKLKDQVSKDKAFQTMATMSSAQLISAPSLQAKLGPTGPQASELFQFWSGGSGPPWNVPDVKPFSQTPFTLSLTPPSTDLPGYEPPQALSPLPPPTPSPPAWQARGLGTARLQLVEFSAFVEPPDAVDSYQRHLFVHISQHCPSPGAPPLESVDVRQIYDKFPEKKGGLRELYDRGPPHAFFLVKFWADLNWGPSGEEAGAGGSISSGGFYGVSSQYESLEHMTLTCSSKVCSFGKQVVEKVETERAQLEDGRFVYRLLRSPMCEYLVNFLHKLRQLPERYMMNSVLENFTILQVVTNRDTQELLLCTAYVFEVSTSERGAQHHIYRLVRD

The experiment has as its target T1, Flag-tagged human guanylate-binding protein 1 (GBP-1), full length (human) (UniProt P32455).
T1 sequence: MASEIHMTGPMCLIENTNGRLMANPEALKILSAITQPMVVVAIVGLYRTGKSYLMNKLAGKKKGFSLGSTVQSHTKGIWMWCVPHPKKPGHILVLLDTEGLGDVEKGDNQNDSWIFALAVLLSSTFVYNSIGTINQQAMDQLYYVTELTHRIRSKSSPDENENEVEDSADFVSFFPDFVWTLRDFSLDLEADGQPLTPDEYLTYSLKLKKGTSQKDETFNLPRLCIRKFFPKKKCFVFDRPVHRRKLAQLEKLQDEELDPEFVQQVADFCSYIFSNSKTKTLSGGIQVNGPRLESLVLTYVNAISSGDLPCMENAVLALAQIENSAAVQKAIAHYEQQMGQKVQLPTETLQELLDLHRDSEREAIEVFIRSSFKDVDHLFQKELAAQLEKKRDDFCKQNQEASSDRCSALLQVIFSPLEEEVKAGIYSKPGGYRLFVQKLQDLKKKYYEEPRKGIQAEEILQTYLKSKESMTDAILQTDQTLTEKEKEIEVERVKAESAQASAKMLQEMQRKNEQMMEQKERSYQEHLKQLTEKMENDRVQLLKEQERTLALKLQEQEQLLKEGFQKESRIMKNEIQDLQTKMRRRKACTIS
The experiment in a line: co-IP; Flag M2 antibody affinity gel precipitates the Flag-tagged protein from lysates of transfected DLD1 or HeLa cells; endogenous TEAD detected by western blot (pan-TEAD, TEAD1, TEAD2 or TEAD3 antibody).

These are yes or no findings as the source states them, for the method shown. Binding seen in cells or lysates may run through a third protein. Some binding calls cover weakened binding; strength is not graded here. Where a sequence is shown, tags or fusion partners need not be part of it.

In the case of “endogenous TEAD2 (from UniProt Q15562 1-447)”, the binding result is listed as “binds”.
